These are yes or no findings as the source states them, for the method shown. Binding seen in cells or lysates may run through a third protein. Some entries that bind do so weakly or less than the wild type.
Molecular target: FGR (human (endogenous in LoVo)) (UniProt P09769)
Experiment: co-IP; LoVo lysates (200 mg) treated with FGR antibodies (Santa Cruz Biotechnology, sc-166079) for one night at 4 °C and Protein A Sepharose beads for three hours; immunocomplexes examined by western blotting

Amino acid sequences for entries named in this document (tags omitted).
UniProt P08047: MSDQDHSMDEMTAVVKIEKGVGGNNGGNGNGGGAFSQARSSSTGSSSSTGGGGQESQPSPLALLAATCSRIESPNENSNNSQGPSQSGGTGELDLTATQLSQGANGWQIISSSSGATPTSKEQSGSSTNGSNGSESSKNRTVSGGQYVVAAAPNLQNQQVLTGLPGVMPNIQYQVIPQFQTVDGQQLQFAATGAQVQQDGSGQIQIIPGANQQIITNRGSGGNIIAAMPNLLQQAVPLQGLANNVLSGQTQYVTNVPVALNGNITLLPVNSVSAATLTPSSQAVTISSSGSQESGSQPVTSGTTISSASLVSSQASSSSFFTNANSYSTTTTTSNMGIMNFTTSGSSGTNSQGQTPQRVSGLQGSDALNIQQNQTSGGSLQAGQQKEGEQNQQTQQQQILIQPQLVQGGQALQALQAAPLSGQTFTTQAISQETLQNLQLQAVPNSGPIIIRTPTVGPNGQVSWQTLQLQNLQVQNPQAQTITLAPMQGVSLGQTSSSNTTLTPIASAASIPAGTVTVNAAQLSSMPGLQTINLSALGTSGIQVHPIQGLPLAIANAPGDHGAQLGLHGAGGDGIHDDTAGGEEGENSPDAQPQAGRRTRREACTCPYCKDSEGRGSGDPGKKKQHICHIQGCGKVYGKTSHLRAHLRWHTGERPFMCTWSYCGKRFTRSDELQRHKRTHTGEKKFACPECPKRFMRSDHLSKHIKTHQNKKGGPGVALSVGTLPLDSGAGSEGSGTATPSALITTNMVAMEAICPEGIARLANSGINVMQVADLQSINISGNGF

## SP1 (from UniProt P08047 1-785)
  binding: binds
